PubChem BioAssay AID1259254, NCATS, 2017
This is a random part of about 59,000 reagents. About 1,550 of all reagents (2.6%) count as active. 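G2 share is only a proxy for re-replication; each gene was hit by three separate siRNAs, and active genes were retested.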 Raw values are not corrected between plates. Entries without a mark were called inactive. The numbers tell different reagents against one gene apart. The record does not give: the amount of reagent.

Screen: 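Finding genes that stop cells copying their DNA twice in one cycle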 (primary screen)
Cell system: human HCT116 colorectal cancer cells
Reagent: single siRNA against human genes
Timing: 3 days
Read-out: 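Imaged Hoechst DNA stain sorts each cell into a cycle phase by DNA amount; per plate, G2 fraction set to 0% for non-targeting and 100% for GMNN siRNA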
Reading the numbers: G2 robust z-score and G2 cells, % of GMNN control: higher = more G2 cells, more excess DNA replication; raw share of cells in G2: higher = larger share of cells with G2 DNA content
Rule for the call: 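Active siRNAs have a G2 robust z of 5 or more median absolute deviations over the median, which in these data means about 38% or higher of GMNN control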

| target gene | reagent no. | G2 robust z-score | G2 cells, % of GMNN control | raw share of cells in G2 (%) |
| --- | --- | --- | --- | --- |
| RBPJL (GeneID 11317) | 1 | 1.09 | 10.6 | 10.6 |
| RBPJL (GeneID 11317) | 2 | 3.22 | 25.7 | 12.7 |
| RBPJL (GeneID 11317) | 3 | 0.791 | 8.53 | 6.79 |
| BMP2 (GeneID 650) | 1 | 0.853 | 8.97 | 9.51 |
| BMP2 (GeneID 650) | 2 | 1.85 | 16 | 9.94 |
| BMP2 (GeneID 650) | 3 | -0.283 | 0.975 | 3.9 |
| PABPC1 (GeneID 26986) | 1 | 1.22 | 11.5 | 11.4 |
| PABPC1 (GeneID 26986) | 2 | 0.881 | 9.17 | 7.23 |
| PABPC1 (GeneID 26986) | 3 | 0.453 | 6.15 | 6 |
| PTH (GeneID 5741) | 1 | 0.109 | 3.73 | 6.1 |
| PTH (GeneID 5741) | 2 | -0.328 | 0.659 | 4.36 |
| PTH (GeneID 5741) | 3 | -0.595 | -1.22 | 4.56 |
| YWHAQ (GeneID 10971) | 1 | 1.35 | 12.5 | 7.87 |
| YWHAQ (GeneID 10971) | 2 | -1.17 | -5.25 | 3.41 |
| YWHAQ (GeneID 10971) | 3 | -1.01 | -4.11 | 4.86 |
| TGM2 (GeneID 7052) | 1 | 0.694 | 7.85 | 6.56 |
| TGM2 (GeneID 7052) | 2 | -0.752 | -2.32 | 3.75 |
| TGM2 (GeneID 7052) | 3 | -1.41 | -6.94 | 3.35 |
| MUC3A (GeneID 4584) | 1 | -0.821 | -2.81 | 3.21 |
| MUC3A (GeneID 4584) | 2 | 0.583 | 7.07 | 5.76 |
| MUC3A (GeneID 4584) | 3 | -0.272 | 1.05 | 3.43 |
| SLC22A17 (GeneID 51310) | 1 | 0.391 | 5.72 | 8.55 |
| SLC22A17 (GeneID 51310) | 2 | -1.14 | -5.03 | 2.38 |
| SLC22A17 (GeneID 51310) | 3 | 0.228 | 4.57 | 5.55 |
| AGMAT (GeneID 79814) | 1 | -0.615 | -1.36 | 3.7 |
| AGMAT (GeneID 79814) | 2 | 0.0451 | 3.28 | 6 |
| AGMAT (GeneID 79814) | 3 | 0.309 | 5.14 | 7.57 |
| TRIB1 (GeneID 10221) | 1 | 0.512 | 6.57 | 7.63 |
| TRIB1 (GeneID 10221) | 2 | -0.0655 | 2.51 | 6.1 |
| TRIB1 (GeneID 10221) | 3 | 0.665 | 7.64 | 6.13 |
| KRT74 (GeneID 121391) | 1 | -0.979 | -3.92 | 2.52 |
| KRT74 (GeneID 121391) | 2 | -0.448 | -0.185 | 3.28 |
| KRT74 (GeneID 121391) | 3 | 0.635 | 7.43 | 3.99 |
| OSTN (GeneID 344901) | 1 | 0.128 | 3.87 | 5.32 |
| OSTN (GeneID 344901) | 2 | 3.11 | 24.8 | 14.1 |
| OSTN (GeneID 344901) | 3 | -0.21 | 1.49 | 4.79 |
| DENND2D (GeneID 79961) | 1 | 0.413 | 5.87 | 6.88 |
| DENND2D (GeneID 79961) | 2 | 3.68 | 28.8 | 16.9 |
| DENND2D (GeneID 79961) | 3 | 3.02 | 24.2 | 8.99 |
| MORC3 (GeneID 23515) | 1 | -0.595 | -1.22 | 3.45 |
| MORC3 (GeneID 23515) | 2 | -0.274 | 1.04 | 6.79 |
| MORC3 (GeneID 23515) | 3 | -0.194 | 1.6 | 4.69 |
| ZNF134 (GeneID 7693) | 1 | -0.704 | -1.99 | 2.87 |
| ZNF134 (GeneID 7693) | 2 | -0.195 | 1.59 | 6.7 |
| ZNF134 (GeneID 7693) | 3 | -0.416 | 0.0432 | 3.36 |
| HDAC8 (GeneID 55869) | 1 | -1.07 | -4.59 | 4.42 |
| HDAC8 (GeneID 55869) | 2 | -0.141 | 1.97 | 5.15 |
| HDAC8 (GeneID 55869) | 3 | 1.37 | 12.6 | 9.6 |
| SYTL2 (GeneID 54843) | 1 | 0.866 | 9.06 | 5.99 |
| SYTL2 (GeneID 54843) | 2 | -1.56 | -8.04 | 2.28 |
| SYTL2 (GeneID 54843) | 3 | -0.937 | -3.63 | 2.49 |
| SMARCAD1 (GeneID 56916) | 1 | 3.47 | 27.4 | 14.3 |
| SMARCAD1 (GeneID 56916) | 2 | 0.479 | 6.34 | 6.98 |
| SMARCAD1 (GeneID 56916) | 3 | -0.177 | 1.72 | 7.18 |
| SCGB2A2 (GeneID 4250) | 1 | 2.18 | 18.3 | 12.8 |
| SCGB2A2 (GeneID 4250) | 2 | 1.51 | 13.6 | 9.6 |
| SCGB2A2 (GeneID 4250) | 3 | -0.109 | 2.2 | 4.15 |
| MRPL45 (GeneID 84311) | 1 | 0.381 | 5.65 | 5.99 |
| MRPL45 (GeneID 84311) | 2 | -0.867 | -3.13 | 2.53 |
| MRPL45 (GeneID 84311) | 3 | -0.645 | -1.57 | 1.93 |
| LPIN1 (GeneID 23175) | 1 | -0.475 | -0.374 | 4.84 |
| LPIN1 (GeneID 23175) | 2 | -0.406 | 0.114 | 4.18 |
| LPIN1 (GeneID 23175) | 3 | -0.952 | -3.73 | 1.78 |
| RPF2 (GeneID 84154) | 1 | 1.58 | 14.1 | 10 |
| RPF2 (GeneID 84154) | 2 | 0.234 | 4.61 | 5.86 |
| RPF2 (GeneID 84154) | 3 | 0.778 | 8.44 | 8.95 |
| ANKMY1 (GeneID 51281) | 1 | 1.6 | 14.2 | 9.28 |
| ANKMY1 (GeneID 51281) | 2 | -0.0052 | 2.93 | 5.66 |
| ANKMY1 (GeneID 51281) | 3 | 0.714 | 7.99 | 5.77 |
